These are yes or no findings as the source states them, for the method shown. Binding seen in cells or lysates may run through a third protein. Some binding calls cover weakened binding; strength is not graded here.
How the values were obtained:
[1] = biological target: T1, vascular endothelial cadherin (mouse (endogenous in pMECs)) (UniProt P55284); assay: co-IP; VE-Cadherin immunoprecipitates from lysates of F/F and BRAFΔ/Δ pMEC monolayers; Protein G Sepharose with antibody, 4 °C overnight; 25 mM HEPES, 150 mM NaCl, 1 mM EGTA, 0.5% NP-40, 10% glycerol; immunoblot
T1 sequence: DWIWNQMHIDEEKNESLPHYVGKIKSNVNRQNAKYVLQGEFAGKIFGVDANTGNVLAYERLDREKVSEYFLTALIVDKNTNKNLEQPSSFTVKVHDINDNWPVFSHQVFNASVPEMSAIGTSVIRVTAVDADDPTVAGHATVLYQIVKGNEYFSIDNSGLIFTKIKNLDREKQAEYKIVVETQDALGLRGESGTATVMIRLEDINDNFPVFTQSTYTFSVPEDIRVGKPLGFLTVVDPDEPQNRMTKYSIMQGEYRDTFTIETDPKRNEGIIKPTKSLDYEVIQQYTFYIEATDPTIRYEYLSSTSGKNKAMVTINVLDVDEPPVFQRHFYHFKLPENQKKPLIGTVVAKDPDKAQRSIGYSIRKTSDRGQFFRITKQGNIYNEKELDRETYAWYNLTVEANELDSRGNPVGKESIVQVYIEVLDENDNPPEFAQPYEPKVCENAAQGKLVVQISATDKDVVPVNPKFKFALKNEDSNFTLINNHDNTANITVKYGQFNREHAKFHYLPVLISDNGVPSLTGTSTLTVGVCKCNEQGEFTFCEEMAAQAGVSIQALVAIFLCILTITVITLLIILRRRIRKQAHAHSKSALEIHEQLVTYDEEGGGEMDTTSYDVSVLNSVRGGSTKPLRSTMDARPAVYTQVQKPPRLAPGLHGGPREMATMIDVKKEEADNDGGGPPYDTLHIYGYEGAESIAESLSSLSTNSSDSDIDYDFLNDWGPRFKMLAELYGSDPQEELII

The chains behind the UniProt entries cited, without tags or fusion partners. Residues count along the entry.
UniProt P61586, residues 1-181: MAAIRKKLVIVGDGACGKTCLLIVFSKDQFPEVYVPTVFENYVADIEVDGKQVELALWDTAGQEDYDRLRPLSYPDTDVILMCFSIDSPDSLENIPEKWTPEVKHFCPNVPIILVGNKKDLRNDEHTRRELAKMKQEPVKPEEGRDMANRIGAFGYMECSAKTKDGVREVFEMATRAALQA
UniProt P35918, residues 20-1345: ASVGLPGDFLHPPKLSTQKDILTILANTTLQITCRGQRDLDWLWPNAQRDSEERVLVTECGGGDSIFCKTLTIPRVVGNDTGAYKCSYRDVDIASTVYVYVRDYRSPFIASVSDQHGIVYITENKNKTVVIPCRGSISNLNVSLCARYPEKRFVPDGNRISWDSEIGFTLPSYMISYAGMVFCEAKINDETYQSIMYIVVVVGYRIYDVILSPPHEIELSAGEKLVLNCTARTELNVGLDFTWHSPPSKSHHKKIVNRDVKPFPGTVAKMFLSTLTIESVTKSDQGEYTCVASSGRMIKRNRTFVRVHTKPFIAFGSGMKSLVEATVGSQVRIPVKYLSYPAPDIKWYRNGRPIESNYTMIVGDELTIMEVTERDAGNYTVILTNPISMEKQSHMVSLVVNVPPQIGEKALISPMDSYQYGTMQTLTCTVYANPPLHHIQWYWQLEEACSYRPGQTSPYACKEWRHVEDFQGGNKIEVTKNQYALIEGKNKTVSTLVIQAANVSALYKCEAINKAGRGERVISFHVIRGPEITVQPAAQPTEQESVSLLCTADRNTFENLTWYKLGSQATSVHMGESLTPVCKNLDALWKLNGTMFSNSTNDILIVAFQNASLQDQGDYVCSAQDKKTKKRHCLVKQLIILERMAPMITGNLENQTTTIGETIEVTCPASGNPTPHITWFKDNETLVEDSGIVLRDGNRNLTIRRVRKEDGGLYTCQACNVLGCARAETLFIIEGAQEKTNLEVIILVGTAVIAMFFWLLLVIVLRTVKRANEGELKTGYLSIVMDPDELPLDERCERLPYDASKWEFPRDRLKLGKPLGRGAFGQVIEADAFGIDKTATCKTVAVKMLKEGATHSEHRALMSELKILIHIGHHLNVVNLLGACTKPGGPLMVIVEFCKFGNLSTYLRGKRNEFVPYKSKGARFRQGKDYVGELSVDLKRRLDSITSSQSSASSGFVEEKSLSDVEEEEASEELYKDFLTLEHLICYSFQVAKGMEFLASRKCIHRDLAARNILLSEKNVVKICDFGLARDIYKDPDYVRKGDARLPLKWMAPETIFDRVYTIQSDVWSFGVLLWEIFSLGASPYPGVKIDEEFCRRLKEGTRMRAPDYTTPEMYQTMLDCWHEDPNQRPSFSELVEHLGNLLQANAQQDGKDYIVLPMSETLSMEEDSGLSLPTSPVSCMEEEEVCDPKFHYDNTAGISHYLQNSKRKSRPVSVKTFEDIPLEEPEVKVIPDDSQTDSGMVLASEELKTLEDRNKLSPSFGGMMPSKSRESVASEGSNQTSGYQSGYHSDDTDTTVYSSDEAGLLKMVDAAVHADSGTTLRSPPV
UniProt P28028: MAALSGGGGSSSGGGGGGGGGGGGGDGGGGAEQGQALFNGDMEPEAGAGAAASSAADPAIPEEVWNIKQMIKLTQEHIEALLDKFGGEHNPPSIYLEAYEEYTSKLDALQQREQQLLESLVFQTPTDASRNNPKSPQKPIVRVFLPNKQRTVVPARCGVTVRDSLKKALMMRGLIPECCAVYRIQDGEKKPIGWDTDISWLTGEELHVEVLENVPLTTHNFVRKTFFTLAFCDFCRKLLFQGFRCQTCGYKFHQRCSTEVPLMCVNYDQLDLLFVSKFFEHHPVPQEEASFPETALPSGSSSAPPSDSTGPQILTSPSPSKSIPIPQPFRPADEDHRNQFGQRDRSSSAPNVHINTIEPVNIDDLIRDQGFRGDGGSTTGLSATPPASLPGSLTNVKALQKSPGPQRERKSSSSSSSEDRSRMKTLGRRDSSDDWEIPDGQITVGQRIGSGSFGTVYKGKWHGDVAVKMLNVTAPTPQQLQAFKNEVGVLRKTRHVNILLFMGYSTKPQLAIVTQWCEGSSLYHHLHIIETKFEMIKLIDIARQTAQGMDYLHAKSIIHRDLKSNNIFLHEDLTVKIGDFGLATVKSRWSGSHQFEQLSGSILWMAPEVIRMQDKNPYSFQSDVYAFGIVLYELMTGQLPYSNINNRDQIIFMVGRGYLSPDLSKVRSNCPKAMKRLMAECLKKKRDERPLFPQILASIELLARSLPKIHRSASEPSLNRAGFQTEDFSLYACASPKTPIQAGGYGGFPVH
UniProt P70336: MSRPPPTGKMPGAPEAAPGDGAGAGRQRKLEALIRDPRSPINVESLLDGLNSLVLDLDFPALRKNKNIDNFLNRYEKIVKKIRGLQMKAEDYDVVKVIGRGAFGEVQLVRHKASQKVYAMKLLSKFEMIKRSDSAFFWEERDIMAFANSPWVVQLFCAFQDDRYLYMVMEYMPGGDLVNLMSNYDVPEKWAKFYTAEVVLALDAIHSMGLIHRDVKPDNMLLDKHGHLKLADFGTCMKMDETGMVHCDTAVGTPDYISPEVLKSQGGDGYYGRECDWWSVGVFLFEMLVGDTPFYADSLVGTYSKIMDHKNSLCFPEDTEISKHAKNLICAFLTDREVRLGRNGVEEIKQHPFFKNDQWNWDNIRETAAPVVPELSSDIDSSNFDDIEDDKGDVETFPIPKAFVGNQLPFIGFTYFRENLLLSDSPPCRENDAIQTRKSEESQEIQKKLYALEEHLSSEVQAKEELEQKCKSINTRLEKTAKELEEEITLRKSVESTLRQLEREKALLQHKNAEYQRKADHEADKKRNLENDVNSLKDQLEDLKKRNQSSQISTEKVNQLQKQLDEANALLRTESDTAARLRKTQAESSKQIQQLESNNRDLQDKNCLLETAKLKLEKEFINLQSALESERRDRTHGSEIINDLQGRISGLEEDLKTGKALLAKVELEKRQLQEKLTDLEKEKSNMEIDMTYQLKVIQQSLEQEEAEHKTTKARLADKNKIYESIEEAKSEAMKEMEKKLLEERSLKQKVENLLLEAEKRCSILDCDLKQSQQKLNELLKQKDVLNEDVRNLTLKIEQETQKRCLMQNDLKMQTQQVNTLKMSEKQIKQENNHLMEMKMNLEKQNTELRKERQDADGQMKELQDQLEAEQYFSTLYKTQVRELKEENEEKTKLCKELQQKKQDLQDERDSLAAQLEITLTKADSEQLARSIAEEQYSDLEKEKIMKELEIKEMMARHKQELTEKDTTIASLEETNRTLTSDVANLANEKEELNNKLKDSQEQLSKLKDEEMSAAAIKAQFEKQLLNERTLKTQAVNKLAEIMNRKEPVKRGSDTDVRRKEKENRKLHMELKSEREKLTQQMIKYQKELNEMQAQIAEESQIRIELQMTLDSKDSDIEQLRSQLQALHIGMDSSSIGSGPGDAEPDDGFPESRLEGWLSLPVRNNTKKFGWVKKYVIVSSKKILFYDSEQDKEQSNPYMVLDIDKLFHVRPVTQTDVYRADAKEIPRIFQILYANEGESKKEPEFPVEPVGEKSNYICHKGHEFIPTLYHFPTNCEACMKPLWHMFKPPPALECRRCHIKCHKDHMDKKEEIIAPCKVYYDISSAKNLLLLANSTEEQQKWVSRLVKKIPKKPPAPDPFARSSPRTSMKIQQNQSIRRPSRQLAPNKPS
UniProt Q02248: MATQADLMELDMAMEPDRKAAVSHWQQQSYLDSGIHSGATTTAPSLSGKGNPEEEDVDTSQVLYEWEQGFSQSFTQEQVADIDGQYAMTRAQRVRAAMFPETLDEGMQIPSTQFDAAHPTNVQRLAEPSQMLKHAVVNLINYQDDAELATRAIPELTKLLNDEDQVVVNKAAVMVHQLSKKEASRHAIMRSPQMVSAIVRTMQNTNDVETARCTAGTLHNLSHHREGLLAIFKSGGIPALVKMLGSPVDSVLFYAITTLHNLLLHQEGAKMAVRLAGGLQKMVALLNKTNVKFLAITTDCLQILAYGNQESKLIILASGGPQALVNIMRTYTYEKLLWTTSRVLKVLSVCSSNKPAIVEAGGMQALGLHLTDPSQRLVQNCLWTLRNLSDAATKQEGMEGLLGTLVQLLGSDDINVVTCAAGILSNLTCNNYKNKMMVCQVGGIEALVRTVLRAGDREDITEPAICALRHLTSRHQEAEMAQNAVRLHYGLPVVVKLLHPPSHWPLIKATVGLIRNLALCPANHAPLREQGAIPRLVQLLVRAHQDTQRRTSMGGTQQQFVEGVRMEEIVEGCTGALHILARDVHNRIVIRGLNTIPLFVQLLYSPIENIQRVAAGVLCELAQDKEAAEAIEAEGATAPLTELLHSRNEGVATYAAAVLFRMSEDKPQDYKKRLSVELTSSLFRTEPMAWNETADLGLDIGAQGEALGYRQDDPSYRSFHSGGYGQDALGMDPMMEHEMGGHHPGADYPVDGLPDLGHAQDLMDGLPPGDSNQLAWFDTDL

[2] = biological target: GST‐tagged GTPγS‐loaded Rho (1–181) (UniProt P61586); assay: pull-down; GTPγS-loaded GST-Rho (1-181) immobilised on GST-resin, incubated with lysates of F/F, BRAFΔ/Δ and RAF1Δ/Δ pMECs stimulated with 200 ng/mL VEGF (160 μg on 70 μL 50% beads), overnight at 4 °C; immunoblot; only the target purified
[3] = biological target: RAF1 (endogenous, pMECs) (mouse (endogenous in pMECs)) (UniProt Q99N57); assay: co-IP; RAF1 immunoprecipitates from lysates of F/F and BRAFΔ/Δ pMEC monolayers; Protein G Sepharose with antibody, 4 °C overnight; 25 mM HEPES, 150 mM NaCl, 1 mM EGTA, 0.5% NP-40, 10% glycerol; immunoblot

Row | Substance | binding [1] | binding [2] | binding [3]
1 | VEGFR2 (from UniProt P35918 20-1345) (receptor) | binds | – | –
2 | BRAF (endogenous, pMECs) (from UniProt P28028 1-751) (enzyme) | binds weakly | no binding | –
3 | RHO‐dependent kinase α (from UniProt P70336 1-1388) (enzyme) | – | binds | binds
4 | RAF1 (endogenous, pMECs) (from UniProt Q99N57 1-648) (enzyme) | – | binds | –
5 | β catenin (from UniProt Q02248 1-781) | binds | – | –

From article PMC6617973
